Results published in patent US20150152166A1.
No constants are given. Whether binding was seen depends on the method and setting. Some entries that bind do so weakly or less than the wild type.

By UniProt entry, the sequences of proteins in these tests, tags left out. Residues count along the entry.
UniProt P06473, residues 32-906: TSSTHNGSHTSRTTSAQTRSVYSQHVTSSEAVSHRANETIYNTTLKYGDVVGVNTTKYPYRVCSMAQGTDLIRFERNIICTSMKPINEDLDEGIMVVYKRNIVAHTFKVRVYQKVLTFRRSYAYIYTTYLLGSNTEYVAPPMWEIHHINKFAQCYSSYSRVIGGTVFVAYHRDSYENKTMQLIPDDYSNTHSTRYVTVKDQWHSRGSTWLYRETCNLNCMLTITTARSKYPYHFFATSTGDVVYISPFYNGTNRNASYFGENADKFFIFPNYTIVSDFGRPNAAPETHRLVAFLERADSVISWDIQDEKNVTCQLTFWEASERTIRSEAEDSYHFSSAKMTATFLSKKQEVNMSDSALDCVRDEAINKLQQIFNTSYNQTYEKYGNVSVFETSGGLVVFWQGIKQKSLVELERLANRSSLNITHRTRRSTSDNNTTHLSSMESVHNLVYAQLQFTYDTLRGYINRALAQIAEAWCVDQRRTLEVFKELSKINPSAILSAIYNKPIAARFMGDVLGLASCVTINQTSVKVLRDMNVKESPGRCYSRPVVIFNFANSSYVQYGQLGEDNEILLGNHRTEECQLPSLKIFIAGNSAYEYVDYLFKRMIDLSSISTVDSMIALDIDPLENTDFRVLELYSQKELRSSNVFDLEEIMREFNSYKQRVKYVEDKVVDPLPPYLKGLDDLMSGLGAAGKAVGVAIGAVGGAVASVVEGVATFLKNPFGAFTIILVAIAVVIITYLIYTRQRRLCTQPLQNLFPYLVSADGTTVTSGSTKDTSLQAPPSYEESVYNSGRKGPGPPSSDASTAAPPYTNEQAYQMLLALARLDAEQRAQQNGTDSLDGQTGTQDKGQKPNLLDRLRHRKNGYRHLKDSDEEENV

T1: CMV gp116 epitope AD2 site peptide … (CMV (human cytomegalovirus))
T1 sequence (peptide): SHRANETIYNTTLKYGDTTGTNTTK

B1: 2F10 human anti-CMV antibody (antibody, V domains shown)
VH: QVHLVESGGGVVQPGRALRLSCAATGFTFSNHGIHWVRQAPGKGLEWLAVISSDGDDDRYADSVKGRFSVSRDNSKNTVHLQMNGLRPDDTAIYFCARDGRCGEPKCYSGLPDYWGRGTLVTVSS
VL: EIVLTQSPATLSLSPGDRATLSCRASQSVGGYLAWYQQKPGQAPRLLLYDASNRATGIPARFSGSGSGTDFTLTISSLEPEDFALYYCLQRNTWPPLTFGGGTKVEIKR
B2: 4P12 human anti-CMV antibody (antibody, V domains shown)
VH: QVQLVESGGGVIQPGRSLRLSCVASKFIFSNHGIHWVRQAPGKGLEWVAVISKDGTNAHYADSVRGRFSISRDNSKDTVFLEMRSLRPEDTAVYYCAREGRCIEENCYSGQIDYWGQGSLVTVSS
VL: EILLTQSPATLSLSPGERATLSCRASQSVGRYMAWYQQRPGQAPRLLIYDASIRATGIPARFSGSGSGTDFTLTISSLQPEDFAIYYCQQRSSWPPLTFGGGTKVEIKR

Key:
[1] = target: HCMV glycoprotein B (gB complex of gp58 and gp116) on CMV virus (human cytomegalovirus) (UniProt P06473); assay: ELISA on UV-inactivated CMV virus coated on a plate, HRP anti-human detection
[2] = target: T1, CMV gp116 epitope AD2 site peptide … (CMV (human cytomegalovirus)); assay: ELISA on UV-inactivated CMV virus with soluble AD2 peptide as competitor

Row | Binder | binding [1] | binding [2]
1 | B1 | binds | binds
2 | B2 | binds | binds
